According to PubChem BioAssay AID540276 (National Center for Advancing Translational Sciences (NCATS), 2011):
Several values for one entry are separate records, joined by “and”; a condition that tells them apart may be missing. Equal entries are not always repeated. The campaign covered roughly 300,000 compounds. About 5,400 (1.8%) were called active. Inconclusive means that the source gave no clear call. Such entries were picked first, then a sample of the others. Calls follow the shape of the full dose curve; tested in HEK293 cells. A potency beside an inconclusive call is a rough fit, not a confirmed value.

Assay: qHTS for inhibitors of binding or entry into cells for Marburg Virus
Conditions: Marburg virus pseudotyped entry inhibition, cell reporter; series mostly up to 37.8 µM
Potency is read from the fitted curve at half-maximal effect.

| Compound | Potency |
| --- | --- |
| CC(=O)Nc1ccc(NC(=O)CSc2nc3c([nH]c4ccccc43)c(=O)n2-c2ccccc2F)cc1 | inconclusive: 35.5 µM [inhibitor, single point] |
| CC(C)(C)c1cc(C(c2cccnc2)N2CCN(CCO)CC2)cc(C(C)(C)C)c1O (stereo not drawn) | inactive and inconclusive: 32.6 µM [inhibitor, single point] |
| Cc1ccc(-c2cc(C(=O)N3CCCCCC3)no2)cc1 | inconclusive: 11.2 µM [inhibitor, partial curve, poor fit] |
| CCCCOC(=O)C(C)Nc1n[nH]c(=O)[nH]c1=O (stereo not drawn) | inconclusive: 25.1 µM [activator, single point] |
| COc1ccc(NC(=O)N2CCc3nc(-c4ccc(OC)cc4C)c4c(c3C2)CO[C@@H](c2ccccc2)C4)cc1 | inconclusive: 0.0042 µM [inhibitor, full curve, poor fit] |
| Cc1ccc2c(C)nc(NC3=NCN(CCc4ccccc4)CN3)nc2c1 | inactive |
| CC(NC(=O)COc1ccccc1F)C1CC2CCC1C2 (stereo not drawn) | inconclusive: 10 µM [inhibitor, partial curve, poor fit] |
| O=C(Cc1cccs1)N(Cc1cccs1)C1(C(=O)NC2CCCCC2)CCCCC1 | inconclusive: 1.12 µM [inhibitor, full curve, poor fit] |
| CCCn1c2ccccc2c2cnn(CC(=O)NC3CCC(C)CC3)c(=O)c21 (stereo not drawn) | inactive |
| CC(C)(C)c1cc2ncnc(N3CCCCC3)c2s1 | inconclusive: 15.8 µM [inhibitor, single point] |
| CC1S/C(=N/N=C2CCCCC2)NC1=O (stereo not drawn) | inconclusive: 17.8 µM [inhibitor, single point] |
| Cc1ccc(C(=O)C(O)C(c2ccc(C)cc2)N2CCCCC2)cc1 (stereo not drawn) | inconclusive: 35.5 µM [inhibitor, single point] |
| CCOC(=O)c1c(C)[nH]c(C(=O)COC(=O)CNC(=O)c2ccc(Br)cc2)c1C | inconclusive: 2.24 µM [activator, full curve] |
| C/C(=N/OC(=O)c1ccc(Cl)cc1Cl)c1oc(C)nc1C | inactive |
| CC(C)Oc1ccc(C(=O)N2CCC(c3nc4ccccc4s3)CC2)cc1 | inconclusive: 5.62 µM [inhibitor, single point] |
| O=C(C1CCC1)N1CCN(Cc2ccccc2)CC1 | inconclusive: 22.4 µM [activator, single point] |
| COCCN(CCOC)Cc1c(O)ccc2c1O/C(=C\c1ccc(C)o1)C2=O | inactive |
| COc1ccc(-c2nn(-c3ccccc3)cc2C(=O)Nc2nccs2)cc1 | inconclusive: 22.4 µM [inhibitor, partial curve, poor fit] |
| CC1(C)CC2CC(C)(CN2S(=O)(=O)c2ccc(C(=O)Nc3ccc(Cl)c(S(=O)(=O)N4CCOCC4)c3)cc2)C1 (stereo not drawn) | active: 3.55 µM |
| Oc1ccccc1OCCOc1ccccc1OCCOc1ccccc1O | inactive |
| CCOC(=O)c1nnn(-c2nonc2N)c1-c1ccc(OCC)cc1 | inconclusive: 17.8 µM [activator, partial curve, poor fit] |
| O=C(Nc1cc(Cl)cc(Cl)c1)C(NCC1CCCO1)c1ccccc1 (stereo not drawn) | inconclusive: 8.2 µM [inhibitor, partial curve, poor fit] |
| COc1cc(NC(=O)c2nc3nc(C)cc(C(F)F)n3n2)c(OC)cc1Cl | inconclusive: 5.62 µM [inhibitor, single point] |

Taken from above.
Value of CC1(C)CC2CC(C)(CN2S(=O)(=O)c2ccc(C(=O)Nc3ccc(Cl)c(S(=O)(=O)N4CCOCC4)c3)cc2)C1 (stereo not drawn) under Potency: active: 3.55 µM
Value of CC(C)(C)c1cc(C(c2cccnc2)N2CCN(CCO)CC2)cc(C(C)(C)C)c1O (stereo not drawn) under Potency: inactive and inconclusive: 32.6 µM [inhibitor, single point]

(next part)

| Compound | Potency |
| --- | --- |
| Cc1nnc(SCC(=O)N2CCCC(N3CCN(c4ccc(F)cc4)CC3)C2)o1 (stereo not drawn) | inactive |
| CC1CCN(CCC(=O)N/N=C/c2ccc([N+](=O)[O-])cc2)CC1 | inactive |
| CCOc1ccc(NC(=O)c2cnsn2)cc1 | active: 8.91 µM |
| CCc1nc2ccccc2c(C(=O)OCC(=O)NCc2ccco2)c1C | inconclusive: 35.5 µM [inhibitor, single point] |
| Cc1ccc2oc(C(=O)NCc3ccc4c(c3)OCO4)c(C)c2c1 | inactive |
| CC(C)N1C(=O)c2ccccc2C1C(=O)NCCc1ccccc1 (stereo not drawn) | inactive |
| C=CCNC(=S)Nc1sc2c(c1C(N)=O)CCCC2 | inactive |
| Cc1ccc(-c2nnc(Nc3ccc4c(c3)OCO4)c3ccccc23)cc1S(N)(=O)=O | inconclusive: 35.5 µM [inhibitor, partial curve, poor fit] |
| Cc1cc(C)cc(NC(=O)Cn2cc(C(=O)c3cccs3)c3ccccc32)c1 | inconclusive: 11.2 µM [inhibitor, partial curve, poor fit] |
| CCNC(=O)c1ccccc1NC(=O)c1cccc(S(=O)(=O)N2CCOCC2)c1 | inconclusive: 3.16 µM [inhibitor, partial curve, poor fit] |
| CC(NCc1ccc(F)cc1)C(=O)Nc1cc(S(=O)(=O)N2CCCCC2)ccc1Cl (stereo not drawn) | inconclusive: 31.6 µM [inhibitor, single point] |
| Cn1c(=O)n(C)c2cc(/C=N/NC(=O)c3cc4cc(Br)ccc4o3)ccc21 | inconclusive: 0.398 µM [inhibitor, partial curve, poor fit] |
| Cc1ccc2oc(-c3ccc(C)c(NC(=O)/C=C/c4ccc(Cl)cc4)c3)nc2c1 | inconclusive: 20 µM [activator, single point] |
| Cc1cccc(-n2cc(-c3ccccc3)c3c(=O)[nH]cnc32)c1 | inconclusive: 35.5 µM [inhibitor, single point] |
| COc1cccc(NC(=O)CN2CCN(S(=O)(=O)c3ccc(C(C)C)cc3)CC2)c1 | inconclusive: 0.562 µM [inhibitor, single point] |
| CCN1C(=O)N(C)[C@@H](c2ccccc2)C(C(=O)OC)=C1C | inconclusive: 0.0299 µM [inhibitor, full curve, poor fit] |
| CC1(C)OC(=O)C(=NNc2ccc(O)cc2)C(=O)O1 | inconclusive: 0.631 µM [inhibitor, partial curve, poor fit] |
| Cc1cccc(C)c1NC(=S)NCc1ccccc1 | inconclusive: 35.5 µM [inhibitor, single point] |
| COCc1cc(=O)[nH]c(-c2csc(C)n2)n1 | inactive |
| Cc1cc(NC(=O)c2ccc3nc(-c4ccccc4)c(-c4ccccc4)nc3c2)no1 | inconclusive: 16.4 µM [inhibitor, single point] |
| CN1C(=O)CSc2ccc(NC(=O)NCc3cccnc3)cc21 | inactive |
| CC(C)C(OC(=O)c1cc2occc2n1C)C(=O)NCc1ccc2c(c1)OCO2 (stereo not drawn) | inconclusive: 23.1 µM [inhibitor, single point] |
| COC(=O)[C@@H]1CC23C(=NC(c4ccc([N+](=O)[O-])cc4)=C(C(F)(F)F)[C@@H]2N(C)c2ccccc23)N1C(C)=O (stereo partly drawn) | inactive |

| Compound | Potency |
| --- | --- |
| CCOCc1c(C(=O)Nc2ccccc2N2CCN(C)CC2)oc2ccccc12 | inconclusive: 11.2 µM [inhibitor, partial curve] |
| O=C(CSc1nc(-c2ccccc2)cs1)N1CCN(C(=O)c2ccco2)CC1 | inactive |
| COc1ccc(NC(=O)c2cc3sccc3n2Cc2ccc(F)cc2)cc1OC | inactive |
| Nc1c(C(=O)NCC2CCCO2)c2nc3ccccc3nc2n1-c1ccccc1 (stereo not drawn) | inconclusive: 1.41 µM [inhibitor, partial curve, poor fit] |
| Cc1cccnc1NC(=O)Cn1nc([N+](=O)[O-])cc1C | inconclusive: 11.2 µM [activator, single point] |
| CC(C#N)Sc1nnc(Nc2ccccc2)s1 (stereo not drawn) | inconclusive: 12.6 µM [activator, single point] |
| Clc1ccccc1/C=N/Nc1cc(N2CCOCC2)ncn1 | inconclusive: 20 µM [inhibitor, single point] |
| O=C(O)c1cnn2c(C(F)F)cc(C3CC3)nc12 | inactive |
| CC(=O)Nc1ccccc1C(=O)OCc1cccc(F)c1 | inactive |
| O=C(COc1ccc(Cl)cc1Cl)Nc1cccc2cccnc12 | inconclusive: 35.5 µM [inhibitor, single point] |
| CC(N=C1NS(=O)(=O)c2ccccc21)C(=O)N1CCc2ccccc2C1 (stereo not drawn) | inconclusive: 3.16 µM [inhibitor, single point] |
| Cc1cc(C)nc(CCNC(=O)c2cc(COc3ccccc3)on2)n1 | inactive |
| O=C(CSc1ccccn1)N1CCc2ccccc21 | inconclusive: 3.55 µM [activator, single point] |
| O=C(CCC(=O)Nc1ccc(Br)cc1)N/N=C/c1ccccc1O | inconclusive: 5.01 µM [inhibitor, full curve, poor fit] |
| CN1CCC(N(C)S(=O)(=O)c2ccc(F)cc2F)CC1 | inconclusive: 3.55 µM [activator, partial curve, poor fit] |
| CCCCCCCCS(=O)C1CCS(=O)(=O)C1 (stereo not drawn) | inconclusive: 35.5 µM [activator, single point] |
| O=C(O)c1cc(-c2ccccc2)nc2ccccc12 | inactive |
| CCOC(=O)N1CCN(c2ccc(S(=O)(=O)N(Cc3ccccc3)Cc3ccccc3)cn2)CC1 | inconclusive: 35.5 µM [inhibitor, single point] |
| Cc1ccccc1OCC(=O)NC(=S)Nc1ccccc1N1CCN(S(C)(=O)=O)CC1 | inconclusive: 14.1 µM [inhibitor, partial curve, poor fit] |
| CN(C)CCCN(C(=O)CCc1ccccc1)c1nc2ccc(Cl)cc2s1 | inconclusive: 35.5 µM [inhibitor, single point] |
| COc1ccc(N2CCN(C(=O)c3cc(N4C(=O)C5C6CCC(C6)C5C4=O)ccc3Cl)CC2)cc1 (stereo not drawn) | inconclusive: 3.66 µM [inhibitor, partial curve, poor fit] |
| O=C(Nc1cccc(-c2cn3ccccc3n2)c1)c1cccc(Cl)c1 | inconclusive: 22.4 µM [inhibitor, single point] |

Rewritten with bars between the fields: entries from further up
Compound | Potency
Clc1ccccc1/C=N/Nc1cc(N2CCOCC2)ncn1 | inconclusive: 20 µM [inhibitor, single point]
O=C(O)c1cnn2c(C(F)F)cc(C3CC3)nc12 | inactive
CC(=O)Nc1ccccc1C(=O)OCc1cccc(F)c1 | inactive
O=C(COc1ccc(Cl)cc1Cl)Nc1cccc2cccnc12 | inconclusive: 35.5 µM [inhibitor, single point]
CC(N=C1NS(=O)(=O)c2ccccc21)C(=O)N1CCc2ccccc2C1 (stereo not drawn) | inconclusive: 3.16 µM [inhibitor, single point]
Cc1cc(C)nc(CCNC(=O)c2cc(COc3ccccc3)on2)n1 | inactive
O=C(CSc1ccccn1)N1CCc2ccccc21 | inconclusive: 3.55 µM [activator, single point]
O=C(CCC(=O)Nc1ccc(Br)cc1)N/N=C/c1ccccc1O | inconclusive: 5.01 µM [inhibitor, full curve, poor fit]
CN1CCC(N(C)S(=O)(=O)c2ccc(F)cc2F)CC1 | inconclusive: 3.55 µM [activator, partial curve, poor fit]
CCCCCCCCS(=O)C1CCS(=O)(=O)C1 (stereo not drawn) | inconclusive: 35.5 µM [activator, single point]
O=C(O)c1cc(-c2ccccc2)nc2ccccc12 | inactive
CCOC(=O)N1CCN(c2ccc(S(=O)(=O)N(Cc3ccccc3)Cc3ccccc3)cn2)CC1 | inconclusive: 35.5 µM [inhibitor, single point]
Cc1ccccc1OCC(=O)NC(=S)Nc1ccccc1N1CCN(S(C)(=O)=O)CC1 | inconclusive: 14.1 µM [inhibitor, partial curve, poor fit]
